{
  "sequences": {"note": "Protein sequences, listed by entry. Tags and fused reporters are not part of them.", "UniProt P17302": "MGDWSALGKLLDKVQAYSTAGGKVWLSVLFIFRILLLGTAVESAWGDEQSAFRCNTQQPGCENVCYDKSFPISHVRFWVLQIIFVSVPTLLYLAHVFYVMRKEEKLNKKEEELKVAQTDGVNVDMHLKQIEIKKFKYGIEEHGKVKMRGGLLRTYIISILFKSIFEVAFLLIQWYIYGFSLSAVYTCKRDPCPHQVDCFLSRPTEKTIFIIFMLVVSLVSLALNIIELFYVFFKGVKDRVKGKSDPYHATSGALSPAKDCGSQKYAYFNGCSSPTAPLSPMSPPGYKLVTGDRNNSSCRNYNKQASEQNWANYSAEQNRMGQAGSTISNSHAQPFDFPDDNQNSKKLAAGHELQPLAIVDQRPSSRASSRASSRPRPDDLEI", "UniProt Q14247": "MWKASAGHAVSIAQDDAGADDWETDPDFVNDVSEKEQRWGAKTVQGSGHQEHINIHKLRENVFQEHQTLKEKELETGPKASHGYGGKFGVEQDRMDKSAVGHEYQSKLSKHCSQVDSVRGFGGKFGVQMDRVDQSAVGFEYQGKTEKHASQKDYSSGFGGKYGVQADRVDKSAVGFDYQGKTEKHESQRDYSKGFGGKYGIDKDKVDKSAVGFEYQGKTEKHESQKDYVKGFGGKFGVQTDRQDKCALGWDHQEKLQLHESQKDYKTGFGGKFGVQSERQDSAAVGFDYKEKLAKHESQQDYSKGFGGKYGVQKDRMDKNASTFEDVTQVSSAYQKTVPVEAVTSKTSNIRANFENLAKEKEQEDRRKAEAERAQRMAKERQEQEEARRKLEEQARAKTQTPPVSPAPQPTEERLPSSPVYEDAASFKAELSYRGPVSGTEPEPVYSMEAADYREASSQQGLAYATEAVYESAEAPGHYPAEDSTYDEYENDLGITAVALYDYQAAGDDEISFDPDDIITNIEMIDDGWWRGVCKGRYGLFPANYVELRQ"},
  "source": "paper PMC7602984",
  "target": "connexin43 (Cx43), full-length human, stably overexpressed in LNCaP cells (human) (UniProt P17302)",
  "assay": "co-IP; 500 ug RIPA lysate of LNCaP Cx43 cells, 17 h with or without ObCM; immunoprecipitation with rabbit polyclonal anti-Cterm Cx43 (irrelevant rabbit antibody as isotype control), protein A/G-sepharose beads, 2 h at 4 °C; blot for cortactin",
  "note": "No constants are given. Whether binding was seen depends on the method and setting. Binding seen in cells or lysates may run through a third protein. Some results given as binding are weak or reduced against the parent protein; the word gives no strength.",
  "data": [
    {"substance": "cortactin (from UniProt Q14247 1-550)", "values": [
      {"measurement": "binding", "value": "binds"}
    ]}
  ]
}
